Test results published in article PMC8464816.
No constants are given. Whether binding was seen depends on the method and setting. In cells and extracts the contact can be indirect. Some binding calls cover weakened binding; strength is not graded here.

Amino acid sequences for entries named in this document (tags omitted). Residues count along the entry.
UniProt P35869, residues 11-848: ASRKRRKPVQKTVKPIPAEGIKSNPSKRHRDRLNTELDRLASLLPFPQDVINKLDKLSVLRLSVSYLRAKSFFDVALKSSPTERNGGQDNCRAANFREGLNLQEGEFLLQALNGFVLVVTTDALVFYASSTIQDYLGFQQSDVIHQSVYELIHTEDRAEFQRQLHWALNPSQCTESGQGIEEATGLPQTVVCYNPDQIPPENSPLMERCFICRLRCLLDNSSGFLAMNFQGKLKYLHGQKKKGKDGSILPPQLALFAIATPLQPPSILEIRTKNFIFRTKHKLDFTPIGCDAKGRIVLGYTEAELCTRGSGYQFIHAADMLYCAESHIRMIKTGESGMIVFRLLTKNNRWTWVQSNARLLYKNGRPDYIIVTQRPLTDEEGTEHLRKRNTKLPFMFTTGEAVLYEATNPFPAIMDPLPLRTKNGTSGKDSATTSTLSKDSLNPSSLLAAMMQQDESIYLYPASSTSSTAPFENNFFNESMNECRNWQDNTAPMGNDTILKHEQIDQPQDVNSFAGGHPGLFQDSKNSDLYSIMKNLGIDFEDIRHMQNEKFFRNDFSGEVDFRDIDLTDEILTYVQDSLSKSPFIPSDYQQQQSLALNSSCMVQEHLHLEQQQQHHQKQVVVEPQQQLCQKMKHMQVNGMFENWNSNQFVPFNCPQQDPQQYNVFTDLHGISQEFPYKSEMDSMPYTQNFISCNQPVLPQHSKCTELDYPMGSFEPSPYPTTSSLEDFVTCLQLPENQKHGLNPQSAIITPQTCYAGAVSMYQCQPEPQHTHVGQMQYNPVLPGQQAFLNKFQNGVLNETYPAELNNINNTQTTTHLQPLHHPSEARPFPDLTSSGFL

Target: aryl hydrocarbon receptor (human (endogenous in A549)) (UniProt P35869)
Experiment: co-IP; endogenous proteins in pre-cleared RIPA lysates (0.5 mg) of A549 wt and AHR-KO clones; capture antibodies against AHR or LRIG1 (1 ug/mL), overnight at 4 °C, protein A magnetic beads; Western blot

binding | Molecule
binds | epidermal growth factor receptor (from UniProt P00533 25-1210)
binds | leucine-rich repeats and immunoglobulin-like domains 1 (protein, UniProt Q96JA1 35-1093) AGPRAPCAAACTCAGDSLDCGGRGLAALPGDLPSWTRSLNLSYNKLSEIDPAGFEDLPNLQEVYLNNNELTAVPSLGAASSHVVSLFLQHNKIRSVEGSQLKAYLSLEVLDLSLNNITEVRNTCFPHGPPIKELNLAGNRIGTLELGAFDGLSRSLLTLRLSKNRITQLPVRAFKLPRLTQLDLNRNRIRLIEGLTFQGLNSLEVLKLQRNNISKLTDGAFWGLSKMHVLHLEYNSLVEVNSGSLYGLTALHQLHLSNNSIARIHRKGWSFCQKLHELVLSFNNLTRLDEESLAELSSLSVLRLSHNSISHIAEGAFKGLRSLRVLDLDHNEISGTIEDTSGAFSGLDSLSKLTLFGNKIKSVAKRAFSGLEGLEHLNLGGNAIRSVQFDAFVKMKNLKELHISSDSFLCDCQLKWLPPWLIGRMLQAFVTATCAHPESLKGQSIFSVPPESFVCDDFLKPQIITQPETTMAMVGKDIRFTCSAASSSSSPMTFAWKKDNEVLTNADMENFVHVHAQDGEVMEYTTILHLRQVTFGHEGRYQCVITNHFGSTYSHKARLTVNVLPSFTKTPHDITIRTTTMARLECAATGHPNPQIAWQKDGGTDFPAARERRMHVMPDDDVFFITDVKIDDAGVYSCTAQNSAGSISANATLTVLETPSLVVPLEDRVVSVGETVALQCKATGNPPPRITWFKGDRPLSLTERHHLTPDNQLLVVQNVVAEDAGRYTCEMSNTLGTERAHSQLSVLPAAGCRKDGTTVGIFTIAVVSSIVLTSLVWVCIIYQTRKKSEEYSVTNTDETVVPPDVPSYLSSQGTLSDRQETVVRTEGGPQANGHIESNGVCPRDASHFPEPDTHSVACRQPKLCAGSAYHKEPWKAMEKAEGTPGPHKMEHGGRVVCSDCNTEVDCYSRGQAFHPQPVSRDSAQPSAPNGPEPGGSDQEHSPHHQCSRTAAGSCPECQGSLYPSNHDRMLTAVKKKPMASLDGKGDSSWTLARLYHPDSTELQPASSLTSGSPERAEAQYLLVSNGHLPKACDASPESTPLTGQLPGKQRVPLLLAPKS
